The values below come from publication PMC7403583.

Results are given in words; binding and its absence hold for the method and conditions named. Binding seen in cells or lysates may run through a third protein. Some entries that bind do so weakly or less than the wild type.

Assay [1] has as its target T1, human IRF4, wild type (IRF4-wt) (human) (UniProt Q15306).
T1 sequence: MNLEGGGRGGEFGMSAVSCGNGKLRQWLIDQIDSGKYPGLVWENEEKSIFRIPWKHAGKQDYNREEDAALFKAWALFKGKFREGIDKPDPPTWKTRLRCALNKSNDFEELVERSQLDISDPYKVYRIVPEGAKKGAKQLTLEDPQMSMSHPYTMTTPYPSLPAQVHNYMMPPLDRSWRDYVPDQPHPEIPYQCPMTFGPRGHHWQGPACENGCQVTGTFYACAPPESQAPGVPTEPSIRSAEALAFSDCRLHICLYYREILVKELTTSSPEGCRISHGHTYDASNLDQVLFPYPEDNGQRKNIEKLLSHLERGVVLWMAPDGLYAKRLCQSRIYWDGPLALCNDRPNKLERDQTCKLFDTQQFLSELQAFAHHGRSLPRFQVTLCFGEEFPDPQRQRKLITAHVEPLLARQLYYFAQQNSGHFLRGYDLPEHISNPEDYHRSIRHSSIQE
Briefly: co-IP; 293T cells co-transfected with MYC-tagged and FLAG-tagged IRF4 (wt or AA); cell extracts immunoprecipitated with anti-FLAG agarose affinity matrix; immunoblot.

The target of assay [2] is human IRF4 phosphomutant (IRF4-AA), cannot undergo S446/S447 phosphorylation (human) (UniProt Q15306). The assay is described as above.

B1: human IRF4, wild type (IRF4-wt) (protein, UniProt Q15306-2 1-450)
chain: MNLEGGGRGGEFGMSAVSCGNGKLRQWLIDQIDSGKYPGLVWENEEKSIFRIPWKHAGKQDYNREEDAALFKAWALFKGKFREGIDKPDPPTWKTRLRCALNKSNDFEELVERSQLDISDPYKVYRIVPEGAKKGAKQLTLEDPQMSMSHPYTMTTPYPSLPAQVHNYMMPPLDRSWRDYVPDQPHPEIPYQCPMTFGPRGHHWQGPACENGCQVTGTFYACAPPESQAPGVPTEPSIRSAEALAFSDCRLHICLYYREILVKELTTSSPEGCRISHGHTYDASNLDQVLFPYPEDNGQRKNIEKLLSHLERGVVLWMAPDGLYAKRLCQSRIYWDGPLALCNDRPNKLERDQTCKLFDTQQFLSELQAFAHHGRSLPRFQVTLCFGEEFPDPQRQRKLITAHVEPLLARQLYYFAQQNSGHFLRGYDLPEHISNPEDYHRSIRHSSIQE
For the molecule B1, in assay [1], the binding result is listed as “binds”.

B2: human IRF4 phosphomutant (IRF4-AA), cannot undergo S446/S447 phosphorylation (protein, UniProt Q15306-2 1-450)
chain: MNLEGGGRGGEFGMSAVSCGNGKLRQWLIDQIDSGKYPGLVWENEEKSIFRIPWKHAGKQDYNREEDAALFKAWALFKGKFREGIDKPDPPTWKTRLRCALNKSNDFEELVERSQLDISDPYKVYRIVPEGAKKGAKQLTLEDPQMSMSHPYTMTTPYPSLPAQVHNYMMPPLDRSWRDYVPDQPHPEIPYQCPMTFGPRGHHWQGPACENGCQVTGTFYACAPPESQAPGVPTEPSIRSAEALAFSDCRLHICLYYREILVKELTTSSPEGCRISHGHTYDASNLDQVLFPYPEDNGQRKNIEKLLSHLERGVVLWMAPDGLYAKRLCQSRIYWDGPLALCNDRPNKLERDQTCKLFDTQQFLSELQAFAHHGRSLPRFQVTLCFGEEFPDPQRQRKLITAHVEPLLARQLYYFAQQNSGHFLRGYDLPEHISNPEDYHRSIRHAAIQE
B2: the binding entry was “binds” in assay [1] and “no binding” in assay [2].
